PubChem BioAssay AID720505 | Drosophila RNAi Screening Center – 2013
The deposit covers about 20,000 reagents; shown is a random part of those with a known target gene and a result. In the full data, about 2,100 (10%) got an active call. 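Raw plate signals without normalisation; calls rest on control-based scores that were not deposited; replicate 2 separates called from uncalled poorly.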 Entries without a mark were called inactive. The numbers tell different reagents against one gene apart. No sequences are given here. Not given: the amount of reagent, the time to read-out.

Test: 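Genes needed for store-operated calcium entry in fly cells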 (primary screen)
System: Drosophila S2R+ cells
Reagent: long dsRNA against Drosophila genes
Challenge: thapsigargin (2 µM) in calcium-free buffer to empty internal stores, then 2 mM calcium added back
Measurement: 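Fluo-4 signal in 384-well plates read on a FLIPR after thapsigargin (2 µM, calcium-free) store depletion and 2 mM calcium add-back; unnormalised mean endpoint per well; screen run twice, selected wells retested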
Direction: calcium signal: higher = more calcium entry after store depletion
Hit rule: 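Knock-downs counted as hits when calcium entry dropped relative to STIM1 positive and Rho1 negative controls present on each plate; roughly 1500 genes called, with reductions of differing size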
Calls: active = called as lowering calcium entry; inactive = not called

predicted target | reagent no. | calcium signal, replicate 1 | calcium signal, replicate 2
CG8389 | 1 | 130 | 137
CG8389 | 2 | 84.2 | 87.3
CG14221 | 1 | 64.1 (active) | 227
CG11619 | 1 | 62.4 (active) | 106
CG6000 | 1 | 216 | 196
eIF4E6 | 1 | 175 | 179
CG12134 | 1 | 81.3 | 108
lncRNA:CR32553 | 1 | 69.9 (active) | 100
CG42366 | 1 | 166 | 149
CG42366 | 2 | 154 | 169
Grl36a | 1 | 114 | 105
Gli | 1 | 102 | 156
CG12540 | 1 | 113 | 117
Gr58c | 1 | 187 | 95.2
zfh1 | 1 | 66.5 (active) | 45.1
zfh1 | 2 | 120 | 176
Med | 1 | 122 | 134
Mtk | 1 | 110 | 186
CG8248 | 1 | 167 | 170
Tfb1 | 1 | 151 | 148
Hacd1 | 1 | 123 | 78.8
CG15861 | 1 | 86.8 | 152
Cpr62Bc | 1 | 110 | 127
tn (retired record) | 1 | 84.7 | 103
tn (retired record) | 2 | 129 | 158
nes | 1 | 97.4 | 161
CG11927 | 1 | 89.8 | 155
Mst36Fa | 1 | 203 | 111
trr | 1 | 139 | 111
trr | 2 | 114 | 152
Mst84Dc | 1 | 55.3 (active) | 153
CG11125 | 1 | 142 | 129
CR33319 | 1 | 126 | 9159
hng3 | 1 | 108 | 68.9

5 of these entries, reformatted.
predicted target,reagent no.,"calcium signal, replicate 1","calcium signal, replicate 2"
CG8389,2,84.2,87.3
CG14221,1,64.1 (active),227
CG11619,1,62.4 (active),106
CG6000,1,216,196
eIF4E6,1,175,179
